Data: PubChem BioAssay AID2517 (National Center for Advancing Translational Sciences (NCATS), 2010)
Hit rate of the full screen: of about 350,000 compounds, about 1,200 (0.34%) were called active. The shares of active, inactive and inconclusive entries below differ from those in the screen. The call rests on the fitted dose curve; in most records, active means well fitted inhibition curve with a large enough effect; inconclusive means small, poorly fitted or top-dose-only effect; inactive means no such curve, though single readings can be large or run the other way. Where the call is inconclusive, the potency comes from a doubtful curve fit.

Amino acid sequences for entries named in this document (tags omitted).
UniProt P27695, whole entry, looked up: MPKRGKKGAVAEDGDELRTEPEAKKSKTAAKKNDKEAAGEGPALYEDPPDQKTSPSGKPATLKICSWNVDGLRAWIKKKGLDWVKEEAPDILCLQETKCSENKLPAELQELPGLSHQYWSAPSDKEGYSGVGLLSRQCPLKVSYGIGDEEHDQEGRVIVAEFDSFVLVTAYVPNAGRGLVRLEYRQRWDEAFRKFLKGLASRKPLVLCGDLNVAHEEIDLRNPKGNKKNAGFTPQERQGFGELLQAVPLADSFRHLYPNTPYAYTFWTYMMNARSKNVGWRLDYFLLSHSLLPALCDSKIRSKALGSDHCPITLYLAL

target: DNA repair nuclease/redox regulator APEX1 (Homo sapiens) (UniProt P27695); experiment: qHTS Assay for Inhibitors of the Human Apurinic/apyrimidinic Endonuclease 1 (APE1); details: recombinant APE1, TAMRA/BHQ-2 abasic DNA cleavage fluorescence; activity change, negative = inhibition: at 65.8 µM (top of the series); further: nearly all actives have a fitted effect of over 55% in size;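 on activity change, negative = inhibition: plate controls were vehicle for no effect and reference inhibitor for full effect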
Outline: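 Incision of a quenched TAMRA/BHQ-2 THF abasic-site duplex (50 nM) by 0.75 nM APE1, after 15 min compound preincubation, measured as fluorescence increase over three 60 s reads. Values normalized to buffer, DMSO and NSC13755 control wells.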
Potency means the concentration at half of the fitted maximal effect.

Row | Structure (SMILES) | Potency | activity change, negative = inhibition
1 | COC(=O)[C@@]1(Cc2ccc(F)cc2)[C@H]2c3cc(C(=O)N4CCCC4)n(CCO)c3C[C@H]2CN1C(=O)c1ccccc1 | inconclusive: 3.16 µM [inhibitor, single point] | 
2 | COc1ccc(N/C(C)=C/C(=S)Nc2ccccc2)cc1 |  | inactive: -4.83%
3 | CCOc1ccc(Cc2nc(C)c(CC(=O)N3CCOCC3)c(=O)[nH]2)cc1 | inconclusive: 35.5 µM [inhibitor, partial curve] | 
4 | O=C(O)c1cccc(N2C(=O)/C(=C/c3ccc(SCc4ccc(Cl)cc4)o3)SC2=S)c1 | active: 10 µM | 
5 | COc1ccc(-c2nc(CCNS(=O)(=O)c3ccc4c(c3)OCCO4)cs2)cc1 | inconclusive: 44.7 µM [inhibitor, single point] | 
6 | Oc1ccc(/C=C/c2cc(O)cc(O)c2)cc1 | inconclusive: 35.5 µM [inhibitor, single point] | 
7 | O=C(CCCN1C(=O)/C(=C/c2cccc(Br)c2)SC1=S)NCCCN1CCOCC1 |  | inactive: 23.7%
8 | CC(/C=C/C1(O)C(C)CC(=O)CC1(C)C)OC1OC(CO)C(O)C(O)C1O (configuration not stated) | inconclusive: 31.6 µM [inhibitor, partial curve] | 
9 | CNC(=O)CSc1nc2sccc2c(=O)n1-c1ccccc1 |  | inactive: 1.5%
10 | Cc1c(C(C)(C(=O)O)c2c(C)n(C)c3ccccc23)c2ccccc2n1C | inconclusive: 28.2 µM [inhibitor, single point] | 
11 | Cc1ccc(/C=C/C(=O)O)cc1S(=O)(=O)Nc1ccccc1C(=O)O |  | inactive: 6.29%
12 | CC1CN(c2ccc(C(F)(F)F)cc2[N+](=O)[O-])CCN1S(C)(=O)=O (configuration not stated) | inconclusive: 0.282 µM [inhibitor, full curve] | 
13 | COc1cccc(-n2c(SCC(=O)N3CCc4ccccc43)nnc2-c2c[nH]c3ccccc23)c1 |  | inactive: 10.1%
14 | CCN(CC)S(=O)(=O)c1cc(NC(=O)Cn2ncc(Cl)c(Cl)c2=O)ccc1C | inconclusive: 25.1 µM [inhibitor, single point] | 
15 | COc1ccc(CCNC(=O)COC(=O)c2ccc(OC)cc2OC)cc1 |  | inactive: -12%
16 | Cc1ccc(-c2cc(=O)c3cc(F)ccc3[nH]2)cc1 | inconclusive: 3.55 µM [inhibitor, single point] | 
17 | COc1cc(OC)cc(C(=O)OCc2ccc([N+](=O)[O-])cc2)c1 | inconclusive: 44.7 µM [inhibitor, single point] | 
18 | COc1cc(OC)c(C2=NOC(C(=O)N3CCc4ccccc4C3)C2)cc1Cl (configuration not stated) | inconclusive: 11.2 µM [inhibitor, partial curve] | 
19 | COc1ccc(N2CCN(C(=O)c3ccc(F)cc3)CC2)c([N+](=O)[O-])c1 | inconclusive: 22.4 µM [inhibitor, partial curve, poor fit] | 
20 | Cc1c(C(=O)N2CCCC(C)C2)sc2ncnc(N3CCCCC3C)c12 (configuration not stated) | inconclusive: 0.0032 µM [inhibitor, full curve, poor fit] | 
21 | O=C(Nc1cccnc1)C1CCCN(S(=O)(=O)c2ccccc2)C1 (configuration not stated) | inconclusive: 4.47 µM [inhibitor, single point] | 

Pulled one by one from the entries so far (2):
Row | Structure (SMILES) | Potency | activity change, negative = inhibition
6 | Oc1ccc(/C=C/c2cc(O)cc(O)c2)cc1 | inconclusive: 35.5 µM [inhibitor, single point] | 
18 | COc1cc(OC)c(C2=NOC(C(=O)N3CCc4ccccc4C3)C2)cc1Cl (configuration not stated) | inconclusive: 11.2 µM [inhibitor, partial curve] | 

(listing goes on)

Row | Structure (SMILES) | Potency | activity change, negative = inhibition
22 | O=C1[C@@H]2[C@H]3CC[C@H](C3)[C@@H]2C(=O)N1O | inconclusive: 20 µM [inhibitor, single point] | 
23 | Cc1cc(C)cc(NC(=O)CCC(=O)Nc2nnc(C(C)C)s2)c1 |  | inconclusive: 2.53% [inhibitor]
24 | COc1cccc(NC=C2C(=O)OC(C)(C)OC2=O)c1 | inconclusive: 31.6 µM [inhibitor, single point] | 
25 | COCCN(CCOC)S(=O)(=O)c1ccc(C(=O)Nc2sc3c(c2C(N)=O)CCCCC3)cc1 | inconclusive: 4.47 µM [inhibitor, single point] | 
26 | O=C(NN=C1CCCC1)c1cc(-c2ccc(F)cc2)nc2ccccc12 | inconclusive: 31.6 µM [inhibitor, single point] | 
27 | CCCCCCNC(=O)c1cccc(-c2ccc(C)c3ccccc23)n1 | inconclusive: 3.16 µM [inhibitor, single point] | 
28 | COc1cc(C(Nc2ccc3c(c2)OCO3)C(=O)NC2CCCCC2)cc(OC)c1OC (configuration not stated) |  | inactive: 0.756%
29 | Cc1ccc2c(c1)c1c3n2CCNC3CCC1 (configuration not stated) | inconclusive: 1.78 µM [inhibitor, full curve, poor fit] | 
30 | CSc1ccccc1OCc1cc(C(=O)NCCC2CCCCO2)no1 (configuration not stated) | inconclusive: 37.7 µM [inhibitor, single point] | 
31 | CCN(c1ccccc1)S(=O)(=O)c1cc(NC(=O)COC(=O)C2CC2)ccc1Cl | inconclusive: 25.1 µM [inhibitor, single point] | 
32 | CCOC(=O)c1c(NC(=O)c2nn(CC)cc2Br)sc2c1CCCCC2 | inconclusive: 39.8 µM [inhibitor, single point] | 
33 | CN1CCOc2ccc(S(=O)(=O)N3CCN(S(=O)(=O)c4c(F)cccc4F)CC3)cc21 |  | inactive: 19.2%
34 | CC(C)(C)C(=O)Nc1nc(NC(=O)C(C)(C)C)nc(-c2ccccc2Cl)n1 | inconclusive: 7.08 µM [inhibitor, single point] | 
35 | Cn1cc(C(C[N+](=O)[O-])c2ccccc2)c2ccccc21 (configuration not stated) |  | inactive: -28.4%
36 | Cc1cc(=O)oc2cc(Oc3ccc([N+](=O)[O-])cc3[N+](=O)[O-])ccc12 |  | inactive: 14.5%
37 | O=C(O)C1CN(c2nc(Cl)ccc2[N+](=O)[O-])C1 | inconclusive: 35.5 µM [inhibitor, single point] | 
38 | COc1ccc(C2CC(c3ccccc3)Oc3cc4c(cc32)OCO4)cc1 (configuration not stated) | inactive | 
39 | Cc1nnc(SCC2=C(C(=O)O)N3C(=O)C(NC(=O)Cn4nc(C(F)F)c(Cl)c4C)C3SC2)s1 (configuration not stated) | inconclusive: 3.55 µM [inhibitor, full curve, poor fit] | 
40 | O=C(O)c1ccc2c(=O)[nH]c(CN3CCOCC3)nc2c1 | inconclusive: 6.31 µM [inhibitor, single point] | 
41 | O=C(O)CCN(Cc1ccccc1)S(=O)(=O)c1c(Cl)cccc1Cl | inconclusive: 8.91 µM [inhibitor, single point] | 
42 | COCc1c(Br)c(C)nc(OCC(=O)N/N=C/c2ccco2)c1C#N | inconclusive: 22.4 µM [inhibitor, partial curve] | 
